Values of other authors as cited in patent publication US10206391B2, “Strobilurin formulations” (priority 2011, dated 2019).
Where two headings read alike, the source gives them in different places. At least one compound was matched to its structure with a doubt left.

Settings: sterile conditions

Structure (SMILES): CSC1=N[C@@](C)(c2ccccc2)C(=O)N1Nc1ccccc1 [Fenamidone, (S)-1-anilino-4-methyl-2-methylthio-4-phenylimidazolin-5-one]
- Hydrolysis DT50 (pH 4, 25° C.): Hydrolysis DT50 (25° C., sterile conditions) 41.7 d
- Hydrolysis DT50 (pH 7, 25° C.): 411 days
- Hydrolysis DT50 (pH 9, 25° C.): 27.6 days
